Measurements from patent US10525115B2 (Immatics Biotechnologies GmbH, priority 2014, dated 2020).

Test system: primary AML samples
Experiment: HLA class I ligandome analysis (W6/32 immunoaffinity purification, LC-MS/MS) of primary AML samples
Parameters: species or system human
Conditions: for Number of positive AMLs: AML patients (n=15); for Number of positive AMLs [rep. frequency]: representation frequency of the source protein (LiTAA) in AML patients (n=15); for rep. frequency: representation frequency in AML patients (n=15)
[1] = HLA class I ligandome, count for the HLA ligand (LiTAP) or, on protein lines, for the source protein (LiTAA)

B1: MUL1: FLT3-WT specific LiTAA (protein, UniProt Q969V5 1-352, looked up)
Mitochondrial ubiquitin …: MESGGRPSLCQFILLGTTSVVTAALYSVYRQKARVSQELKGAKKVHLGEDLKSILSEAPGKCVPYAVIEGAVRSVKETLNSQFVENCKGVIQRLTLQEHKMVWNRTTHLWNDCSKIIHQRTNTVPFDLVPHEDGVDVAVRVLKPLDSVDLGLETVYEKFHPSIQSFTDVIGHYISGERPKGIQETEEMLKVGATLTGVGELVLDNNSVRLQPPKQGMQYYLSSQDFDSLLQRQESSVRLWKVLALVFGFATCATLFFILRKQYLQRQERLRLKQMQEEFQEHEAQLLSRAKPEDRESLKSACVVCLSSFKSCVFLECGHVCSCTECYRALPEPKKCPICRQAITRVIPLYNS
representation frequency in FLT3-WT ligandomes (FLT3-WT AML n=7, HLA class I): 57.1% | representation in FLT3-WT ligandomes (positive/total) (FLT3-WT AML n=7, HLA class I): 4/7 | Number of positive AMLs [1]: 4 | Number of positive AMLs [rep. frequency]: [26.7%]

B2: METTL7A (protein, UniProt Q9H8H3 30-244, looked up)
Thiol S-methyltransferase …: WICKKWFPYFLVRFTVIYNEQMASKKRELFSNLQEFAGPSGKLSLLEVGCGTGANFKFYPPGCRVTCIDPNPNFEKFLIKSIAENRHLQFERFVVAAGENMHQVADGSVDVVVCTLVLCSVKNQERILREVCRVLRPGGAFYFMEHVAAECSTWNYFWQQVLDPAWHLLFDGCNLTRESWKALERASFSKLKLQHIQAPLSWELVRPHIYGYAVK
Number of positive AMLs (source protein (LiTAA)): 3 | rep. frequency (source protein (LiTAA)): [20.0%]

B3: QTRTD1 (protein, UniProt Q9H974 1-415, looked up)
Queuine …: MKLSLTKVVNGCRLGKIKNLGKTGDHTMDIPGCLLYTKTGSAPHLTHHTLHNIHGVPAMAQLTLSSLAEHHEVLTEYKEGVGKFIGMPESLLYCSLHDPVSPCPAGYVTNKSVSVWSVAGRVEMTVSKFMAIQKALQPDWFQCLSDGEVSCKEATSIKRVRKSVDRSLLFLDNCLRLQEESEVLQKSVIIGVIEGGDVMEERLRSARETAKRPVGGFLLDGFQGNPTTLEARLRLLSSVTAELPEDKPRLISGVSRPDEVLECIERGVDLFESFFPYQVTERGCALTFSFDYQPNPEETLLQQNGTQEEIKCMDQIKKIETTGCNQEITSFEINLKEKKYQEDFNPLVRGCSCYCCKNHTRAYIHHLLVTNELLAGVLLMMHNFEHYFGFFHYIREALKSDKLAQLKELIHRQAS
Number of positive AMLs (source protein (LiTAA)): 3 | rep. frequency (source protein (LiTAA)): [20.0%]

B4: TMBIM4 (protein, UniProt Q9HC24 1-238, looked up)
Protein lifeguard 4: MADPDPRYPRSSIEDDFNYGSSVASATVHIRMAFLRKVYSILSLQVLLTTVTSTVFLYFESVRTFVHESPALILLFALGSLGLIFALILNRHKYPLNLYLLFGFTLLEALTVAVVVTFYDVYIILQAFILTTTVFFGLTVYTLQSKKDFSKFGAGLFALLWILCLSGFLKFFFYSEIMELVLAAAGALLFCGFIIYDTHSLMHKLSPEEYVLAAISLYLDIINLFLHLLRFLEAVNKK
Number of positive AMLs (source protein (LiTAA)): 3 | rep. frequency (source protein (LiTAA)): [20.0%]

B5: RAVER2 (protein, UniProt Q9HCJ3 2-691, looked up)
Ribonucleoprotein PTB-binding …: AAAAGDGGGEGGAGLGSAAGLGPGPGLRGQGPSAEAHEGAPDPMPAALHPEEVAARLQRMQRELSNRRKILVKNLPQDSNCQEVHDLLKDYDLKYCYVDRNKRTAFVTLLNGEQAQNAIQMFHQYSFRGKDLIVQLQPTDALLCITNVPISFTSEEFEELVRAYGNIERCFLVYSEVTGHSKGYGFVEYMKKDFAAKARLELLGRQLGASALFAQWMDVNLLASELIHSKCLCIDKLPSDYRDSEELLQIFSSVHKPVFCQLAQDEGSYVGGFAVVEYSTAEQAEEVQQAADGMTIKGSKVQVSFCAPGAPGRSTLAALIAAQRVMHSNQKGLLPEPNPVQIMKSLNNPAMLQVLLQPQLCGRAVKPAVLGTPHSLPHLMNPSISPAFLHLNKAHQSSVMGNTSNLFLQNLSHIPLAQQQLMKFENIHTNNKPGLLGEPPAVVLQTALGIGSVLPLKKELGHHHGEAHKTSSLIPTQTTITAGMGMLPFFPNQHIAGQAGPGHSNTQEKQPATVGMAEGNFSGSQPYLQSFPNLAAGSLLVGHHKQQQSQPKGTEISSGAASKNQTSLLGEPPKEIRLSKNPYLNLASVLPSVCLSSPASKTTLHKTGIASSILDAISQGSESQHALEKCIAYSPPFGDYAQVSSLRNEKRGSSYLISAPEGGSVECVDQHSQGTGAYYMETYLKKKRVY
Number of positive AMLs (source protein (LiTAA)): 3 | rep. frequency (source protein (LiTAA)): [20.0%]

B6: UCKL1 (protein, UniProt Q9NWZ5 1-548, looked up)
Uridine-cytidine kinase-like 1: MAAPPARADADPSPTSPPTARDTPGRQAEKSETACEDRSNAESLDRLLPPVGTGRSPRKRTTSQCKSEPPLLRTSKRTIYTAGRPPWYNEHGTQSKEAFAIGLGGGSASGKTTVARMIIEALDVPWVVLLSMDSFYKVLTEQQQEQAAHNNFNFDHPDAFDFDLIISTLKKLKQGKSVKVPIYDFTTHSRKKDWKTLYGANVIIFEGIMAFADKTLLELLDMKIFVDTDSDIRLVRRLRRDISERGRDIEGVIKQYNKFVKPSFDQYIQPTMRLADIVVPRGSGNTVAIDLIVQHVHSQLEERELSVRAALASAHQCHPLPRTLSVLKSTPQVRGMHTIIRDKETSRDEFIFYSKRLMRLLIEHALSFLPFQDCVVQTPQGQDYAGKCYAGKQITGVSILRAGETMEPALRAVCKDVRIGTILIQTNQLTGEPELHYLRLPKDISDDHVILMDCTVSTGAAAMMAVRVLLDHDVPEDKIFLLSLLMAEMGVHSVAYAFPRVRIITTAVDKRVNDLFRIIPGIGNFGDRYFGTDAVPDGSDEEEVAYTG
Number of positive AMLs (source protein (LiTAA)): 3 | rep. frequency (source protein (LiTAA)): [20.0%]

B7: NGLY1 (protein, UniProt Q96IV0 2-654, looked up)
Peptide-N(4)-(N-acetyl-beta-gl …: AAAALGSSSGSASPAVAELCQNTPETFLEASKLLLTYADNILRNPNDEKYRSIRIGNTAFSTRLLPVRGAVECLFEMGFEEGETHLIFPKKASVEQLQKIRDLIAIERSSRLDGSNKSHKVKSSQQPAASTQLPTTPSSNPSGLNQHTRNRQGQSSDPPSASTVAADSAILEVLQSNIQHVLVYENPALQEKALACIPVQELKRKSQEKLSRARKLDKGINISDEDFLLLELLHWFKEEFFHWVNNVLCSKCGGQTRSRDRSLLPSDDELKWGAKEVEDHYCDACQFSNRFPRYNNPEKLLETRCGRCGEWANCFTLCCRAVGFEARYVWDYTDHVWTEVYSPSQQRWLHCDACEDVCDKPLLYEIGWGKKLSYVIAFSKDEVVDVTWRYSCKHEEVIARRTKVKEALLRDTINGLNKQRQLFLSENRRKELLQRIIVELVEFISPKTPKPGELGGRISGSVAWRVARGEMGLQRKETLFIPCENEKISKQLHLCYNIVKDRYVRVSNNNQTISGWENGVWKMESIFRKVETDWHMVYLARKEGSSFAYISWKFECGSVGLKVDSISIRTSSQTFQTGTVEWKLRSDTAQVELTGDNSLHSYADFSGATEVILEAELSRGDGDVAWQHTQLFRQSLNDHEENCLEIIIKFSDL
Number of positive AMLs [1]: 5 | Number of positive AMLs [rep. frequency]: [33.3%]

B8: STMN3 (protein, UniProt Q9NZ72 1-180, looked up)
Stathmin-3: MASTISAYKEKMKELSVLSLICSCFYTQPHPNTVYQYGDMEVKQLDKRASGQSFEVILKSPSDLSPESPMLSSPPKKKDTSLEELQKRLEAAEERRKTQEAQVLKQLAERREHEREVLHKALEENNNFSRQAEEKLNYKMELSKEIREAHLAALRERLREKELHAAEVRRNKEQREEMSG
Number of positive AMLs (source protein (LiTAA)): 3 | rep. frequency (source protein (LiTAA)): [20.0%]

B9: CHIC2 (protein, UniProt Q9UKJ5 1-165, looked up)
Cysteine-rich hydrophobic …: MADFDEIYEEEEDEERALEEQLLKYSPDPVVVRGSGHVTVFGLSNKFESEFPSSLTGKVAPEEFKASINRVNSCLKKNLPVNVRWLLCGCLCCCCTLGCSMWPVICLSKRTRRSIEKLLEWENNRLYHKLCLHWRLSKRKCETNNMMEYVILIEFLPKTPIFRPD
Number of positive AMLs (source protein (LiTAA)): 3 | rep. frequency (source protein (LiTAA)): [20.0%]

B10: ODF2L (protein, UniProt Q9ULJ1 1-636, looked up)
Protein BCAP: MEKAVNDGSHSEELFCHLKTISEKEDLPRCTSESHLSCLKQDILNEKTELEATLKEAELVTHSVELLLPLFKDTIEKINFENANLSALNLKISEQKEILIKELDTFKSVKLALEHLLRKRDYKQTGDNLSSMLLENLTDNESENTNLKKKVFEKEAHIQELSCLFQSEKANTLKANRFSQSVKVVHERLQIQIHKREAENDKLKEYVKSLETKIAKWNLQSRMNKNEAIVMKEASRQKTVALKKASKVYKQRLDHFTGAIEKLTSQIRDQEAKLSETISASNAWKSHYEKIVIEKTELEVQIETMKKQIINLLEDLKKMEDHGKNSCEEILRKVHSIEYENETLNLENTKLKLRFPCRITESKNMNILIVLDMLCYISSEKTTLAALKDEVVSVENELSELQEVEKKQKTLIEMYKTQVQKLQEAAEIVKSRCENLLHKNNQITKTKNKNVEKMRGQMESHLKELERVCDSLTAAERRLHECQESLQCCKGKCADQEHTIRELQGQVDGNHNLLTKLSLEEENCLIQLKCENLQQKLEQMDAENKELEKKLANQEECLKHSNLKFKEKSAEYTALARQLEAALEEGRQKVAEEIEKMSSRESALQIKILDLETELRKKNEEQNQLVCKMNSDPETP
Number of positive AMLs (source protein (LiTAA)): 3 | rep. frequency (source protein (LiTAA)): [20.0%]

B11: FARSA (protein, UniProt Q9Y285 2-508, looked up)
Phenylalanine--tRNA ligase …: ADGQVAELLLRRLEASDGGLDSAELAAELGMEHQAVVGAVKSLQALGEVIEAELRSTKHWELTAEGEEIAREGSHEARVFRSIPPEGLAQSELMRLPSGKVGFSKAMSNKWIRVDKSAADGPRVFRVVDSMEDEVQRRLQLVRGGQAEKLGEKERSELRKRKLLAEVTLKTYWVSKGSAFSTSISKQETELSPEMISSGSWRDRPFKPYNFLAHGVLPDSGHLHPLLKVRSQFRQIFLEMGFTEMPTDNFIESSFWNFDALFQPQQHPARDQHDTFFLRDPAEALQLPMDYVQRVKRTHSQGGYGSQGYKYNWKLDEARKNLLRTHTTSASARALYRLAQKKPFTPVKYFSIDRVFRNETLDATHLAEFHQIEGVVADHGLTLGHLMGVLREFFTKLGITQLRFKPAYNPYTEPSMEVFSYHQGLKKWVEVGNSGVFRPEMLLPMGLPENVSVIAWGLSLERPTMIKYGINNIRELVGHKVNLQMVYDSPLCRLDAEPRPPPTQEAA
Number of positive AMLs (source protein (LiTAA)): 3 | rep. frequency (source protein (LiTAA)): [20.0%]
